From PMC6120224
These are yes or no findings as the source states them, for the method shown. In cells and extracts the contact can be indirect. Here binding means that the protein was enriched with, or labelled near, the bait; the list need not be complete.

Sequences of proteins named here, by UniProt entry; tags and fusion partners are left off. Residues count along the entry.
UniProt O75509, residues 42-655: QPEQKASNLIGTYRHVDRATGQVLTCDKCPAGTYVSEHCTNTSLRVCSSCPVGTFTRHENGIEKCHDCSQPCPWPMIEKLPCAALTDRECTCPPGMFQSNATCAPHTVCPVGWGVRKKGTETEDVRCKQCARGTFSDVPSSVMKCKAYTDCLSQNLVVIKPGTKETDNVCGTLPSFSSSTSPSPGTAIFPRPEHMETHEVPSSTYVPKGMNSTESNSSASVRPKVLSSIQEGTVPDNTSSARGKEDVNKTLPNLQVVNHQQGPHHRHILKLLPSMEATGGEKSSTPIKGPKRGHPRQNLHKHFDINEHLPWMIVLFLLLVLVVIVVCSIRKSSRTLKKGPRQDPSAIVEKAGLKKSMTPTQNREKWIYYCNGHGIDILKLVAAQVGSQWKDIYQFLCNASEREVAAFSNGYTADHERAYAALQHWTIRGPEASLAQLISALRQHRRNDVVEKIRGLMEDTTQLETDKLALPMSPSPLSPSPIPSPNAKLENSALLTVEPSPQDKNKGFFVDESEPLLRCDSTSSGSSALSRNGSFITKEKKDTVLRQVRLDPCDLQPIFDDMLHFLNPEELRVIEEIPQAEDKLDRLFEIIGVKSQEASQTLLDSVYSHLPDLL
UniProt P52732: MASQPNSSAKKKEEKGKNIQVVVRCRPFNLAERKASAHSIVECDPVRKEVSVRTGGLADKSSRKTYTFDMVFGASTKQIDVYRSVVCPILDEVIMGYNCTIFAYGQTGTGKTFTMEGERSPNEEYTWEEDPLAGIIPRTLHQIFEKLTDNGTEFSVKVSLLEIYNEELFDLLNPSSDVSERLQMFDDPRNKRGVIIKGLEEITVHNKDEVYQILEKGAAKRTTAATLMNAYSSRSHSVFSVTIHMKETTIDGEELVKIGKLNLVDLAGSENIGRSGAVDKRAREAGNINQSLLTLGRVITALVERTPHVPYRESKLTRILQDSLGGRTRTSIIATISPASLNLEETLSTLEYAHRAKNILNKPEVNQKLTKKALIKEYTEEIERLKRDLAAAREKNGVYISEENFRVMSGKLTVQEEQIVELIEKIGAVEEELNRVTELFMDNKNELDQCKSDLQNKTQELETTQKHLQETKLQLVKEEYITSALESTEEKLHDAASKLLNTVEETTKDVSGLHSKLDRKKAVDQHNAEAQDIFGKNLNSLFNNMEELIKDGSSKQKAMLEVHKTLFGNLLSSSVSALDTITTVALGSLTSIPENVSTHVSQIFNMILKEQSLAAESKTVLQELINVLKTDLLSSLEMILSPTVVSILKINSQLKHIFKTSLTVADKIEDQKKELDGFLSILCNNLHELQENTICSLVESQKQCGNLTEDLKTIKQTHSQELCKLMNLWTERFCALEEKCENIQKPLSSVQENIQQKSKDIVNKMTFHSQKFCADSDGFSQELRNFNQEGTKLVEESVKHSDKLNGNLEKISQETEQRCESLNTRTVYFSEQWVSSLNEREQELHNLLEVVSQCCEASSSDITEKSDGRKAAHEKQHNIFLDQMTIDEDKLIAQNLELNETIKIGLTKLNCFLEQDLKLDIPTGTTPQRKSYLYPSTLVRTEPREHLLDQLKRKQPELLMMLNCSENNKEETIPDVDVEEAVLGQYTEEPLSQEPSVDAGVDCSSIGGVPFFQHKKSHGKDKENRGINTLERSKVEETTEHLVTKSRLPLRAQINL

Molecular target: Flag-DR6 recombinant protein (death receptor 6), expressed in HEK-293T cells (human) (UniProt O75509)
Test: affinity purification with mass spectrometry; lysate of HEK-293T cells expressing Flag-DR6 (control: Flag-GFP) purified on Flag agarose, SDS/PAGE, silver stain, MS

## kinesin family member 11 (KIF11), in HEK-293T cells (from UniProt P52732 1-1056)
  binding: binds
